These are yes or no findings as the source states them, for the method shown. In cells and extracts the contact can be indirect. These calls come from enrichment with a bait or labelling near it, and not all partners need be listed.
Target: GFP-PmACRE1 (Avr9/Cf-9 rapidly elicited protein 1 of Pinus massoniana) (Pinus massoniana)
Test: affinity purification with mass spectrometry; leaf proteins of T3 homozygous PmACRE1-OX transgenic A. thaliana incubated with GFP-Trap agarose (ChromoTek); vector control line as control; SDS-PAGE, trypsin, LC-MS/MS (Orbitrap Fusion Lumos), Proteome Discoverer against UniProt

Protein sequences, listed by entry. Tags and fused reporters are not part of them.
UniProt Q8W4E2: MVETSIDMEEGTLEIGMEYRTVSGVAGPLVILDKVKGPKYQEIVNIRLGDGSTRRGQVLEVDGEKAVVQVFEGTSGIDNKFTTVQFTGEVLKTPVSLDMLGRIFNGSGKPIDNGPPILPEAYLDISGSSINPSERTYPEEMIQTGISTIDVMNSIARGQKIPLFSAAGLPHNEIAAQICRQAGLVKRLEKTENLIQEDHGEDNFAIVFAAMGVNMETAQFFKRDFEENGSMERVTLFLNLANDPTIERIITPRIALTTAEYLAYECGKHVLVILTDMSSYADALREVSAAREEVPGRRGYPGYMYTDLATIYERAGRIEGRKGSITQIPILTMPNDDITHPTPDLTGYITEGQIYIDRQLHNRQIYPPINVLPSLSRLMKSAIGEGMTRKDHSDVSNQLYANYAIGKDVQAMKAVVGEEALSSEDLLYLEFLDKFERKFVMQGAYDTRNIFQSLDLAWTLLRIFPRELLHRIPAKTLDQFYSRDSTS
UniProt P56757: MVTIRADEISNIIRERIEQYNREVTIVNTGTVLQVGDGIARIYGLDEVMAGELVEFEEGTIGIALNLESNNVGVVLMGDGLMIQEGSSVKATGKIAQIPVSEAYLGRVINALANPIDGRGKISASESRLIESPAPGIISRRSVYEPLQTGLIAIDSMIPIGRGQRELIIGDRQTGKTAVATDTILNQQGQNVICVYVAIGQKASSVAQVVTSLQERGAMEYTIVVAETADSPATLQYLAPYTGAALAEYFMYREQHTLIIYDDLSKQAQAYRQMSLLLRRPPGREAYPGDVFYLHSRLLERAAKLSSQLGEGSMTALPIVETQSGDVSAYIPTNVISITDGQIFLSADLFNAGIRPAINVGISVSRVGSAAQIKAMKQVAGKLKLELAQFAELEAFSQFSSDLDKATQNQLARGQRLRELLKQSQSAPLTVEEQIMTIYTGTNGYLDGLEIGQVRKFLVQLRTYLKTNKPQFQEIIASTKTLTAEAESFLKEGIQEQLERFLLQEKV
UniProt P19366: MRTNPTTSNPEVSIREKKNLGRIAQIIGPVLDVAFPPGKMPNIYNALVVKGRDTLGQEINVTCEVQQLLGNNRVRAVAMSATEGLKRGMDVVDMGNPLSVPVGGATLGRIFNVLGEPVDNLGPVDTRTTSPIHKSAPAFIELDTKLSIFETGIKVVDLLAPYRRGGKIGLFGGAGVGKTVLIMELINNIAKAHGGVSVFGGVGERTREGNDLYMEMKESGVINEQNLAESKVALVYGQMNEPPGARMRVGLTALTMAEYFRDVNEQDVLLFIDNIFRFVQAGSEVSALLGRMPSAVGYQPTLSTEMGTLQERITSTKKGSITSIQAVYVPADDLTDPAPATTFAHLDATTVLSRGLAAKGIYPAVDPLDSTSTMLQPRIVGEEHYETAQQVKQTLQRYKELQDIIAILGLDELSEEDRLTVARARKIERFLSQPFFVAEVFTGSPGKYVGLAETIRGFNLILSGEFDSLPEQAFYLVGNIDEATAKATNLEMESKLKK
UniProt F4JTQ0: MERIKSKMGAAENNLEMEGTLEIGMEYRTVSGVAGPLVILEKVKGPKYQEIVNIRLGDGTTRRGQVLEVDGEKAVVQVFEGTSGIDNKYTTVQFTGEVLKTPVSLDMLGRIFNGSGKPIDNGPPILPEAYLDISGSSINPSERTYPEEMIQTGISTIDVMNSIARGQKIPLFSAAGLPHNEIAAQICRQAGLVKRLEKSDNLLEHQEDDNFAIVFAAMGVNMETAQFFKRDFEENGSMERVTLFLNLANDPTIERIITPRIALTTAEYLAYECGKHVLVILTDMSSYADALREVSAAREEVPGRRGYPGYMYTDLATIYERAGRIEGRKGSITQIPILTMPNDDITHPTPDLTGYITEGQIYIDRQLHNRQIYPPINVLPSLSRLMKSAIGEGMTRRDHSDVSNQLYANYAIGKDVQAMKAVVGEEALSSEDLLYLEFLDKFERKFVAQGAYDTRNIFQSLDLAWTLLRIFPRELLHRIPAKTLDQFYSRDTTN

binding, binds:
V-type proton ATPase subunit B3 (from UniProt Q8W4E2 1-487)
ATP synthase subunit alpha, chloroplastic (from UniProt P56757 1-507)
ATP synthase subunit beta, chloroplastic (from UniProt P19366 1-498)
Vacuolar proton pump subunit B (from UniProt F4JTQ0 1-494)

— paper PMC9682698
